Results are given in words; binding and its absence hold for the method and conditions named. Binding calls can cover weak binding; strength is not graded here. Where a sequence is shown, tags or fusion partners need not be part of it. For some assays here: In cells and extracts the contact can be indirect.
What was measured:
[1] = target: T1, HA-Grx4 (recombinant, TEV-cleaved) (S. pombe) (UniProt O74790); test: UV-visible spectroscopy after Fe-S cluster reconstitution; anaerobic in vitro reconstitution of the Fe-S cluster with recombinant Grx4 (50-60 uM) and equimolar recombinant Fra2; both purified
T1 sequence: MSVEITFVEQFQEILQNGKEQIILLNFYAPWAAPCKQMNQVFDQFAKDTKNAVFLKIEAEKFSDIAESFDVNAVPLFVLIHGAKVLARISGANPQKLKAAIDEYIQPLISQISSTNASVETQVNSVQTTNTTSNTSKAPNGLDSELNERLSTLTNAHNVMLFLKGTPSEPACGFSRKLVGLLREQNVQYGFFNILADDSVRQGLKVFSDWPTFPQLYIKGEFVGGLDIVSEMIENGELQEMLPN

Grx4-GFP (S. pombe) = target: T2, Grx4-GFP (S. pombe) (UniProt O74790); test: co-IP; total native protein extracts of S. pombe strains with tagged genes, immuno-precipitated with GFP-trap beads, blotted with anti-Myc or anti-GFP; cells treated or not with 0.25 mM DIP; for Grx4-Fep1 also in cells lacking Fra2
T2 sequence: T1 sequence

binding [1]	binding (Grx4-GFP (S. pombe))	Substance
binds		Fra2 (recombinant) (S. pombe)
	binds	Fra2-Myc (S. pombe)
